# PubChem BioAssay AID2417 (National Center for Advancing Translational Sciences (NCATS), 2010)
# Screen size: about 140,000 compounds; about 4,300 (3.1%) were called active. The inconclusive results got no clear call from the source; some entries with a clear call stand among them for comparison.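 The calls were made as follows: active = readout at or below -70, meaning at least 70% loss of cells showing the perinucleolar compartment, a nuclear body marking cancer cells; inconclusive = readout between -30 and a set limit; inactive = the rest.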
# Experiment: High Content Assay for Compounds that inhibit the Assembly of the Perinucleolar Compartment;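 also: plate controls were DMSO wells for no effect and camptothecin positive control wells for full effect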
# Conditions: PC3M PTB-GFP, PNC prevalence imaging, 16 h; at 10 µM; hits give low values
# How it was run: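 Compounds are pinned in duplicate onto adhered PC3M cells stably expressing GFP-tagged PTB and incubated 16 h at 37 C. Cells are then fixed, nuclei stained with Hoechst, and PNC-positive cells counted.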
row,Compound,"activity change (PNC), negative = inhibition"
1,Cc1sc2nc(SCC(=O)N3CCCC3)[nH]c(=O)c2c1C,active: -80.1%
2,Cc1sc2nc(CN(C(=O)c3cccs3)C3CCCC3)[nH]c(=O)c2c1C,inactive: 3.13%
3,CCOC(=O)/C(C#N)=C\c1cc(C)n(-c2ccccc2)c1C,inconclusive: -43.3%
4,S=c1[nH]nc(-c2ccccc2)n1/N=C/C=C/c1ccco1,inactive: 19.2%
5,COc1ccc(Nc2ccnc(Nc3ccc(OC)cc3)n2)cc1,active: -93.4%
6,CCOCc1cnc(C)nc1NCC(=O)c1c(C)[nH]c2cc(C)ccc12,inconclusive: -63.9%
7,CCOC(=O)N1CCN(C(=S)NCCOC)CC1,inactive: -0.0654%
8,CC1(C)CC(=O)C(C=N)=C(O)C1,inactive: 34.2%
9,CCOC(=O)C1Cn2c(nc3c(c2=O)C2(CCCC2)Cc2ccccc2-3)S1 (configuration not stated),active: -103%
10,Cc1ccc(C(=O)Nc2ccc(N3CCOCC3)cc2)cc1,inconclusive: -30.2%
11,Cc1cc(C)n2nc(/C(C#N)=C/c3ccccc3)c(C#N)c2n1,inconclusive: -31.2%
12,COc1ccc(-c2nc(C#N)c(N3CCOCC3)o2)cc1OC,inconclusive: -47.3%
13,Cc1ccccc1C(=O)NC(=S)Nc1ccc(S(=O)(=O)N2CCN(C)CC2)cc1,inactive: 40.6%
14,COc1ccccc1NC(=O)c1ccc(NC(=O)COC(=O)C2(C)CC2(Cl)Cl)cc1 (configuration not stated),inactive: -27.3%
15,CCCCCCOC(=O)C(C#N)c1nc2ccccc2nc1N1CCOCC1 (configuration not stated),inconclusive: -40.5%
16,Cn1c(CN2CCCCC2)nc2cc(NC(=O)c3ccccc3)ccc21,inconclusive: -48.6%
17,CCOc1ccc2c3c(c(=O)oc2c1OCC)CCCC3,inconclusive: -32%
18,COc1ccnc(NCc2ccc(Cl)cc2)c1C#N,inconclusive: -39.2%
19,C=CCc1ccc(OCC(O)COCC)c(OC)c1 (configuration not stated),inactive: 17.8%

row,Compound,"activity change (PNC), negative = inhibition"
1,Cc1ccc(CNC(=O)c2cccc(S(C)(=O)=O)c2)cc1,inconclusive: -34.9%
2,CCOC(=O)c1ccc(Oc2nc(SC)nc(N(C)C)n2)cc1,inconclusive: -38.2%
3,Cc1ccc(C(C(=O)NC2CCCCC2)N(Cc2cccnc2)C(=O)C2COc3ccccc3O2)o1 (configuration not stated),inconclusive: -39.7%
4,Cc1[nH]nc2c1C(c1cccc(O)c1)C1=C(CC(C)(C)CC1=O)N2 (configuration not stated),inconclusive: -46.3%
5,CC(=O)c1sc(NC(=O)COc2ccc(C)c(C)c2)nc1C,inconclusive: -63.5%
6,Cc1ccc(/C(N)=N/OC(=O)/C=C/c2ccccc2)cc1,inconclusive: -52.1%
7,COC(=O)CSc1ccc(S(=O)(=O)N2CCC(C)CC2)cc1[N+](=O)[O-],active: -109%
8,Cc1cccc(C)c1-n1c(SCC(=O)N2CC(=O)Nc3ccccc32)nc2ccccc2c1=O,inconclusive: -50.5%
9,COc1ccc(-n2nnc3c(=O)n(Cc4cccc(C)c4)cnc32)cc1,inactive: -28.3%
10,Cc1ccc(Cl)cc1NC(=O)COC(=O)c1ccc(N2CCCC2)c([N+](=O)[O-])c1,inactive: 12.3%
11,CC1(C)CC(=O)C(C=Nc2ccccc2Sc2ccccc2)=C(O)C1,inconclusive: -38.6%
12,Cc1ccc(S(=O)(=O)NCC(=O)N(CC(=O)NCC2CCCO2)Cc2ccccc2)cc1 (configuration not stated),inconclusive: -44.6%
13,Cc1cc(NS(=O)(=O)c2ccc(Nc3nc(-c4ccc(O)cc4)cs3)cc2)no1,inconclusive: -34.5%
14,CC(C)NS(=O)(=O)c1ccc(OCC(=O)Nc2cccc3ccccc23)cc1,inconclusive: -37%
15,C=CCCC(=O)Nc1nc(C)c(-c2csc(Nc3cc(Cl)ccc3OC)n2)s1,inconclusive: -46.9%
16,N/C(=N/O)c1nc(N2CCCC2)nc(N(c2ccccc2)c2ccccc2)n1,inconclusive: -41.7%
17,C1=C(CCNc2ncnc3c2[nH]c2ccccc23)CCCC1,inconclusive: -58%
18,COc1cccc(-n2c(SCC(=O)NC3CCCC3)nnc2-c2ccco2)c1,inconclusive: -38.6%
19,COC(=O)c1ccccc1NC(=O)CSc1nnc(-c2ccoc2C)n1C,inconclusive: -66.9%

# In the list so far, two have a thiophene ring, fused or not:
row,Compound,"activity change (PNC), negative = inhibition"
1,Cc1sc2nc(SCC(=O)N3CCCC3)[nH]c(=O)c2c1C,active: -80.1%
2,Cc1sc2nc(CN(C(=O)c3cccs3)C3CCCC3)[nH]c(=O)c2c1C,inactive: 3.13%

# Continued:

row,Compound,"activity change (PNC), negative = inhibition"
1,O=C1CC(c2ccco2)CC(O)=C1C=NCCN1CCN(C2CC(=O)N(c3ccccc3)C2=O)CC1 (configuration not stated),active: -100%
2,COc1ccccc1/C=N/NC(=O)C(NC(=O)c1ccccc1)=C(C)C,inconclusive: -63.2%
3,CCOC(=O)CSc1nnc(SCCN2C(=O)c3ccccc3C2=O)s1,inactive: 6.65%
4,CCCC(=O)N=c1sc2cccc(F)c2n1C,inconclusive: -31.7%
5,Brc1ccc(-c2nnc(-c3ccccc3)c(N3CCSCC3)n2)cc1,inactive: 8.15%
6,Cc1nn(-c2nnc(NCc3ccccc3)nn2)c(C)c1Br,inconclusive: -54.5%
7,COc1ccccc1C(=O)NNC(=S)NC(=O)c1sc2ccccc2c1Cl,inactive: -25.3%
8,Cc1cc(C)n(-c2nc(Nc3ccccc3)nc(-n3nc(C)cc3C)n2)n1,inconclusive: -64.1%
9,COc1ccc(OC)c(/C=C/C(=O)OCC(=O)Nc2cccc(C(C)=O)c2)c1,inconclusive: -45.4%
10,Cc1ccc(-c2nc3ccccc3[nH]2)cc1NC(=O)c1sc2cc(Cl)ccc2c1Cl,inconclusive: -60.7%
11,CCCSC1=C(C#N)C(c2ccc(Cl)cc2Cl)CC(=O)N1 (configuration not stated),inconclusive: -37.8%
12,O=C(O)CC12C[C@H]3C[C@@H](C1)CC(n1ncc(N4CCN(c5ccccc5)CC4)c(Cl)c1=O)(C3)C2,inactive: 2.37%
13,Cn1c(=O)c2[nH]c(Nc3ccccc3)nc2n(C)c1=O,active: -100%
14,Cc1cc(C)n(CC(O)Cn2ccc3ccccc32)n1 (configuration not stated),inactive: 10.5%
15,Nc1nnc(CC(=O)N/N=C/c2cccc(OCCOc3ccccc3)c2)s1,inconclusive: -61.7%
16,N#CCSc1nc2cc(C(=O)N3CCC(C(N)=O)CC3)ccc2c2nc3ccccc3n12,inconclusive: -42.7%
17,CN(c1ccccc1)S(=O)(=O)c1ccc(Cl)c(C(=O)NCCc2c[nH]c3ccccc23)c1,active: -83.7%
18,Cc1cc(C)nc(NC(=O)c2ccc([N+](=O)[O-])o2)n1,active: -86%
19,O=C(c1ccc(N2C(=O)C3CC=C(Cl)CC3C2=O)cc1)N1CCCCC1 (configuration not stated),inactive: -24.8%
